Measurements: patent US11492610B2, “Sample multiplexing for single-cell RNA sequencing” (California Institute of Technology, priority 2018, dated 2022)
At least one structure is not confirmed: it was looked up by name or label, or the drawing left a doubt.

System: mouse neural stem cells (NSCs)
Experiment: 96-plex scRNA-seq perturbation experiment (96-sample growth factor screen)
Type: cell-based
Description: Neural stem cells for 96-sample growth factor screen were cultured according to the following protocol after previously described cell culture plate reached ˜80% confluence: Stock solutions (10×) were prepared in Neural Stem Cell Basal Medium for every factor and at every concentration used: EGF+bFGF at 200 ng/mL, 40 ng/mL, 8 ng/mL, 1.6 ng/mL; BMP4 (Peprotech) at 200 ng/mL, 40 ng/mL, 8 ng/mL, 0 ng/mL; Retinoic Acid (Sigma) at 10 μM, 2 μM, 0 μM; Scriptaid (Selleckchem)/Decitabine (Selleckchem) at 1 μM/5 μM, 0.2 μM/1 μM, 0 μM/0 μM; Heparin at 20 μg/mL+Penicillin-Streptomycin at 10%. […]
NSCs previously plated on 100 mm culture plates until ˜80% confluent were dissociated by incubation in 4 mL of ESGRO Complete Accutase (Millipore) for 2 minutes at 37° C. […] Centrifugation and medium replacement were repeated one more time and cell concentration was counted on the Countess II Automated Cell Counter. […]
Cells for the 96-sample perturbation experiment were prepared as described above. […] Sequencing libraries were prepared as described, with sample tag libraries sequenced on two lanes of Illumina MiSeq using MiSeq v3 150 cycle kits (26×98 bp reads), and cDNA libraries pooled and sequenced on Illumina HiSeq 4000 using two HiSeq 3000/4000 SBS 300 cycle kits (2×150 bp reads). […]

CC1=C(/C=C/C(C)=C/C=C/C(C)=C/C(=O)O)C(C)(C)CCC1 [retinoic acid, reference compound] was tested, and the “cluster (cell state) to which treated cells map” value (Example 2 analysis (t-SNE, Louvain clusters), conditions with ≥0.8 ng/mL EGF/bFGF and BMP4≥4 ng/mL, 5 days culture) was “mapped strongly to cluster 10 with secondary populations mapping to cluster 0” and the “cell proliferation / phenotype across the perturbation array” value (Example 5 re-analysis (UMAP), FIG. 24, 27) was “retinoic acid-driven proliferation”.
